From article PMC8299592
Results are given in words; binding and its absence hold for the method and conditions named. Binding seen in cells or lysates may run through a third protein. A yes stands for co-enrichment or nearness to the bait. Other partners may have been found. A no says only that the protein was not detected with the bait. Where a sequence is shown, tags or fusion partners need not be part of it. Blank lines part the entries; values can stand above or below the molecule they belong to.

Sequences of proteins named here, by UniProt entry; tags and fusion partners are left off. A change or cut given only in a name is not applied to a line headed by its entry.
UniProt Q22CV9: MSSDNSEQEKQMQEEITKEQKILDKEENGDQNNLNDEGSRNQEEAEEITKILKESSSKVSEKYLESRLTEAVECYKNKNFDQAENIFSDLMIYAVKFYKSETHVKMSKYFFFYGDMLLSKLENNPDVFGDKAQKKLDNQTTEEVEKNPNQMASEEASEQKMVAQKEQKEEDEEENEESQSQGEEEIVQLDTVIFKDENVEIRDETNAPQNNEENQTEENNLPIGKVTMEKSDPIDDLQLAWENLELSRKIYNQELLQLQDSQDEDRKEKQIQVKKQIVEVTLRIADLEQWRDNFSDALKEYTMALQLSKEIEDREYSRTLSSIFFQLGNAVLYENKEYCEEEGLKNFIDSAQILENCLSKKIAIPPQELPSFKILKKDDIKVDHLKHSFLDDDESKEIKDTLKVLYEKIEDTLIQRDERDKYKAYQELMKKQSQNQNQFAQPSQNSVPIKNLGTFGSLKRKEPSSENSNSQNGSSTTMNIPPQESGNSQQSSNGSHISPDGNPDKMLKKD
UniProt P69150: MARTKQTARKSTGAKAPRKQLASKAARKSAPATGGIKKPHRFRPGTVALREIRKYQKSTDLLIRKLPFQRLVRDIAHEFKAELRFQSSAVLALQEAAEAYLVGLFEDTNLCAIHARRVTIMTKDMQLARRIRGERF
UniProt Q22RG7: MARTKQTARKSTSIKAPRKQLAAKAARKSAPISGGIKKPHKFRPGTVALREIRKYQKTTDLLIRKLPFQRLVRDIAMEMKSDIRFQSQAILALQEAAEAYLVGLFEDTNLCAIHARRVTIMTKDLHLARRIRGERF
UniProt P41353: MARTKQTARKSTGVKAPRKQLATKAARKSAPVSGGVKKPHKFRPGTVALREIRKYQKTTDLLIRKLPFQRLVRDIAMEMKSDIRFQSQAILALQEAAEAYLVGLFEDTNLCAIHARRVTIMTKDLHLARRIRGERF

Target: Nrp1-HA (NASP-related protein 1, endogenously tagged) (Tetrahymena thermophila) (UniProt Q22CV9)
Experiment: affinity purification with mass spectrometry; Nrp1-HA captured on anti-HA agarose from clarified whole cell lysate of conjugating cells (2 h post-mixing), 4 °C overnight, washes with TBS plus 0.05% Tween-20; LC-MS/MS; proteins detected in WT data sets removed

- binding: binds
Molecule: histone H3.2 (from UniProt P69150 1-136)

- binding: binds
Molecule: histone H3.4 (from UniProt Q22RG7 1-136)

- binding: binds
Molecule: histone H3.3 (from UniProt P41353 1-136)

- binding: binds
Molecule: histone H3.1 (from UniProt P69150 1-136)

- binding: no binding
B1: centromeric histone Cna1p (protein, UniProt Q2N2K6 1-187)
chain: MARKAYQPKRRSNSNQNQQRSDSLKKNKQDNLRSKSAGNQQGNEKNKKDIQDQRNKASTKKKRESSGEKYESARDKVIRRFRPGDNALKQLRQYNQTPSLLIRKLPFQRLIREISTRMTEEDSLRWTSFALVLLQTVVEDYMVSFFEDANACALHAKRVTLMSKDLALAARIRGQKNVTGIFIPTKK

- binding: binds
B2: Rad51 (protein, UniProt O76341 1-331)
chain: MAEYAEDVEQSDGPMLIAKLEEHGINNADVKKLIDAGFQTVESISYTAKKNLLQIKGMTEAKIDKILDVAAKLVPNDFQTAAEYYVKRQSVINLTTGSTELDKLLGGGFETGSLTEIFGEFRTGKTQICHTLCITCQLPKEKGGGEGKAMYIDTEGTFRPERLESIAERFGLDPQECMENVAYARAFNCDQQNKLLVQAAALMAESKYALLIVDSATALYRTDYSGRGELSVRQNHLGKFLRNLQRLADEFGIAVVITNQVMSQVDGAAMFAGDMKKPIGGNIMAHASTTRLYLRKGRGESRICKIYDSPCLPESEAIYAIGKGGIEDFNE
